Binding data for one substance are collected here from doi:10.1101/2022.02.10.480004.

The target of the assay is T1, CFP-tagged wild-type inhibitor-2 (CFP-I-2) (UniProt P41236).
T1 sequence: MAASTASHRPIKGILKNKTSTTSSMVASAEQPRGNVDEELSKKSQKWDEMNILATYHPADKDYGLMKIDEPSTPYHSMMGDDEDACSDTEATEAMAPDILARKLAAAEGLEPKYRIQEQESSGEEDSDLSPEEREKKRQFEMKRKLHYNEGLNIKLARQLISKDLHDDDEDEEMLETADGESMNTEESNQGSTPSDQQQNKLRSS
The experiment in a line: FRET or BRET.

No constants are given. Whether binding was seen depends on the method and setting. In cells and extracts the contact can be indirect. A result given as binding can be weak or reduced; the word gives no strength. Tags and fused reporters may be left off the sequences shown.

For YFP-PP1γ (enzyme), the binding entry is reported as “binds”.
